Results: patent US20250205310A1, “METHOD FOR REVERSING BODY-WIDE AGE-ASSOCIATED FUNCTIONAL CHANGES” (The Chinese University of Hong Kong, priority 2023, published 2025)
At least one structure is not confirmed: it was looked up by name or label, or the drawing left a doubt.

Key:
[1] = test system: aging-associated transcriptomic changes; assay: Bulk RNA-sequencing of tissues (aging-associated transcriptomic changes); type: in vivo, mouse; conditions: aged mice
circulating metabolites = assay: Plasma metabolome profiling (LC-MS/MS); type: in vivo, mouse; conditions: aged mice

CO[C@H]1C[C@@H]2CC[C@@H](C)[C@@](O)(O2)C(=O)C(=O)N2CCCC[C@H]2C(=O)O[C@H]([C@H](C)C[C@@H]2CC[C@@H](O)[C@H](OC)C2)CC(=O)[C@H](C)/C=C(\C)[C@@H](O)[C@@H](OC)C(=O)[C@H](C)C[C@H](C)/C=C/C=C/C=C/1C [rapamycin]
concordance of DEGs common to exenatide and rapamycin treatments (direction and magnitude) ([1]; 3 months treatment): high level of agreement
transcriptomic anti-aging effect ([1]; rapamycin 8 mg/kg BW every other day, 3 months, hippocampus, frontal cortex, WBCs, heart, skeletal muscle): remarkable and statistically significant anti-aging effects
correlation of circulating metabolite changes between exenatide and rapamycin treatment (circulating metabolites; 3 months treatment): positively correlated
reversal of circulating metabolites (circulating metabolites; rapamycin 3 months): strong reversal
